Measurements: PubChem BioAssay AID493014 (National Center for Advancing Translational Sciences (NCATS), 2011)
This is one part of the list. Shown are side measurements of this screen, not its main read-out; they come without a call. Compounds called inactive in the main read-out are mostly missing here. The note in brackets gives the kind of curve behind each potency; many fits are weak.

Experiment: qHTS Assay to Find Inhibitors of Chronic Active B-Cell Receptor Signaling
Conditions: ABC-DLBCL IkBa-CBG/CBR reporter, luminescence ratio (green luciferase fused to IkBa over red control in TMD8 lymphoma cells), 4 h
Summary of the method: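 Compounds up to 46 uM were incubated four hours with TMD8 cells whose green CBG68 luciferase is fused to IkappaBalpha; red CBR luminescence normalised the signal, and concentration-effect curves were fitted to fusion, red and ratio data.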

[1] = measured here: CBR red luminescence, cell number
[2] = measured here: IkBa-CBG green luminescence

SMILES | AC50 [1] | AC50 [2]
COC(=O)[C@@]12CCCN1[C@H](c1ccc(-c3ccc(Cl)c(Cl)c3)cc1)[C@H]1C(=O)N(C)C(=O)[C@H]12 | 29.1 µM [falling, single point] | 
O=C(/C=C(\c1ccc(Cl)cc1)n1cncn1)c1ccc(Cl)cc1 | 0.58 µM [rising, full curve] | 
Cc1cc(C)c(C)c(S(=O)(=O)NC(C(=O)O)C(C)C)c1C (configuration not stated) | 0.316 µM [rising, full curve, poor fit] | 
O=C(N/N=C/C(Cl)=C/c1ccccc1)c1ccc2c(c1)OCO2 | 5.17 µM [falling, partial curve] | 
COC(=O)N1C(=O)[C@@](c2ccccc2)(C(C)C)N1C(=O)OC | 2.24 µM [falling, full curve] | 
COc1ccccc1-n1c(N)c(C(=O)NCC2CCCO2)c2nc3ccccc3nc21 (configuration not stated) | 16.4 µM [falling, partial curve] | 
COCc1cc(CN2CCN(C)CC2)c(O)c2ncccc12 | 0.184 µM [rising, full curve, poor fit] | 20.6 µM [falling, single point]
O=C(NCCc1ccco1)c1cc(COc2cccc(C(F)(F)F)c2)on1 | 35.5 µM [falling, single point] | 
CCOc1ccc(N2CC(=O)SC2=S)cc1 | 6.31 µM [rising, single point] | 8.91 µM [falling, partial curve, poor fit]
C/C(=N\NC(=O)COc1ccccc1-c1ccccc1)c1cccnc1 | 11.2 µM [rising, partial curve, poor fit] | 25.1 µM [falling, single point]
CC(=O)c1ccc(NC(=O)c2noc3c2CCC3)cc1 | 15.8 µM [falling, partial curve, poor fit] | 
COC(=O)c1ccccc1NC(=O)CSc1nnc(Cc2ccc(Cl)cc2)o1 | 2.91 µM [rising, full curve, poor fit] | 
Cc1cccc(-n2nnc(C(=O)NCc3ccccc3)c2N)c1 | 29.1 µM [falling, single point] | 
CC(CC(=O)Nc1cccnc1)c1ccccc1 (configuration not stated) | 7.94 µM [rising, partial curve, poor fit] | 
COc1cc(/C=C/C(=O)OCC(=O)Nc2sc3c(c2C#N)CCC(C)C3)ccc1OCC#N (configuration not stated) | 1.78 µM [rising, full curve, poor fit] | 
Cc1ccc(C(=O)N2CCC(n3nccc3NC(=O)c3ccccc3C)CC2)cn1 | 12.6 µM [rising, single point] | 
Cc1ccc(C)c(N2CCN(C(=O)C3CCN(c4nc(C)cc(C)n4)CC3)CC2)c1 | 32.6 µM [falling, single point] | 
O=[N+]([O-])c1ccc(/C=C2\CCC(C3=CCCC3)=C2N2CCOCC2)cc1 | 16.4 µM [falling, partial curve] | 
C#CCOCCOCCOCCNc1nc(N2CCN(C(=O)CCCCCCCCCCNC(=O)Cn3cc(CCCCCN)nn3)CC2)nc(N2CCN(C(=O)CCCCCCCCCCNC(=O)[C@@H](CCC(=O)O)n3cc(CCCCCN)nn3)CC2)n1 | 13 µM [rising, partial curve, poor fit] | 

Single values from above.
COc1cc(/C=C/C(=O)OCC(=O)Nc2sc3c(c2C#N)CCC(C)C3)ccc1OCC#N (configuration not stated) | AC50 [1]: 1.78 µM [rising, full curve, poor fit]
Cc1ccc(C(=O)N2CCC(n3nccc3NC(=O)c3ccccc3C)CC2)cn1 | AC50 [1]: 12.6 µM [rising, single point]
Cc1cccc(-n2nnc(C(=O)NCc3ccccc3)c2N)c1 | AC50 [1]: 29.1 µM [falling, single point]

(cont.)

SMILES | AC50 [1] | AC50 [2]
CC1=C(C(=O)OCC(C)C)C(c2ccsc2)NC(=O)N1 (configuration not stated) | 2.91 µM [falling, full curve] | 
O=C(NCCc1ccccc1)C1CCN(Cc2cc3ccccc3n2Cc2ccccc2)CC1 | 11.2 µM [falling, single point] | 
O=[N+]([O-])c1ccccc1Nc1c2ccccc2nc2ccccc12 | 20 µM [rising, single point] | 
O=C(/C=C/Sc1ccccc1)c1ccc(Cl)cc1 | 16.4 µM [falling, partial curve] | 14.6 µM [falling, partial curve, poor fit]
OCCc1c[nH]c2ccc(C(F)(F)F)cc12 | 14.1 µM [rising, partial curve, poor fit] | 
C#CCN1C(=O)S/C(=C/C=C/c2ccc(N(C)C)cc2)C1=O | 9.2 µM [rising, partial curve, poor fit] | 
CCSc1ccccc1C(=O)N1CCN(Cc2ccc3c(c2)OCO3)CC1 | 18.4 µM [falling, partial curve, poor fit] | 
CCc1sc(C(=O)N2CCN(CC(=O)Nc3cccc(F)c3)CC2)cc1C | 0.651 µM [rising, partial curve, poor fit] | 
NS(=O)(=O)c1cccc(NC(=O)COC(=O)c2ccccc2SCC(=O)N2CCCC2)c1 | 8.2 µM [rising, partial curve, poor fit] | 
Cc1ccc(S(=O)(=O)N2CCOCC2)cc1C(=O)N1CCc2ccccc21 | 23.1 µM [rising, single point] | 
CCOc1ccc(CNC(=O)CCCC(=O)n2nc(C)c3ccccc32)cc1 | 3.16 µM [falling, partial curve] | 
Nc1ccc2c(c1)N=[N+]([O-])c1cc(N)ccc1C2 | 35.5 µM [rising, single point] | 
COc1ccccc1NC(=O)N1CCc2[nH]c3ccc(F)cc3c2C1 | 4.47 µM [falling, full curve] | 
COc1cc(S(=O)(=O)N2CCOCC2)ccc1NC(=O)COC(=O)/C=C/c1cc(OC)c(OC)c(OC)c1 | 23.1 µM [rising, single point] | 
O=C(N/N=C/c1ccc(COc2ccc(Br)cc2)o1)c1ccc2c(c1)OCO2 | 10 µM [falling, partial curve, poor fit] | 
C=CCc1ccc(OCCOCCNCCOC)c(OC)c1 | 4.47 µM [falling, full curve, poor fit] | 
O=C(COC(=O)c1cc(Br)ccc1O)Nc1cc(S(=O)(=O)N2CCCC2)ccc1Cl | 25.1 µM [falling, single point] | 
O=C(Nc1ccccc1)C1=C[C@H](c2ccc3c(c2)OCO3)C[C@H](OCCCCO)O1 | 6.31 µM [falling, partial curve] | 
CCCOc1ccccc1/C=C1\SC(N)=NC1=O | 11.2 µM [rising, partial curve, poor fit] | 
